{"source": "paper PMC9918186", "about": "“Interaction of Positively Charged Oligopeptides with Blood Plasma Proteins” (International Journal of Molecular Sciences, 2023)", "key": {"GGF [1]": {"tested_on": "GGF", "assay": "ATR-FTIR Amide I deconvolution, secondary structure of GGF with peptide", "details": "for Random Coil of GGF / β-Anti of GGF / β-Sheet of GGF / β-Turn of GGF / α-Helix of GGF: ATR-FTIR Amide I"}, "GGF [2]": {"tested_on": "GGF", "assay": "CD spectroscopy, secondary structure of GGF with peptide"}, "[3]": {"tested_on": "γ-globulin fraction (GGF)", "assay": "Fluorescence quenching of GGF by peptides L1–3", "type": "binding", "protocol": "Fluorescence spectroscopy was carried out to characterize the mechanism of the interaction between three plasma proteins, BSA, AAG, and GGF, with the studied peptides. The fluorescence spectra of protein were collected during titration of L1–L3. The excitation wavelength was set at λ = 280 nm (both Trp and Tyr residues were excited).\nTo confirm this, the fluorescence data were further analyzed by the Stern–Volmer Equation (1) after correction due to the infer filter effect (2):(1) F0/F=1+kqτ[Q]=1+KSV (2) Fcorr=Fobs10^(Aex+Aem)/2 where F0 and F are the fluorescence intensities (after correction) of the protein and protein in the presence of L1–3, respectively, kq is the quenching rate constant, τ0 the average lifetime, [Q] is the L1–3 concentration, Ksv is the Stern–Volmer constant, and Fcorr, and Fobs are the corrected and observed fluorescence intensities, respectively. Aex and Aem are the absorbance values at excitation and emission wavelengths, respectively. A linear regression fit was used to calculate the value of the Stern–Volmer constant (Ksv). Then, assuming the average lifetime of the fluorophore in the excited state for a biomolecule as 10^−8 s, the quenching rate constant (kq) was computed. For dynamic quenching, the maximum scatters collision quenching rate constant for different quenchers with the biopolymers was reported to be 2 × 10^10 dm^3mol^−1s^−1 [55, 56]. […] Collisional quenching occurs when the excited-state fluorophore is deactivated by contact with some other molecule in solution (by collisions). […] This is a dynamic mechanism of quenching. The quenching constant characterizes the quenching mechanism. The maximum value for collisional quenching is 2 × 10^10 dm^3mol^−1s^−1. […] For further confirmation, measurements were made at, in addition to 297 K, temperatures 303 and 308 K. Experimental data points were fitted and analyzed using Equation (1).\nBoth for the complexes with BSA and with GGF, the binding constant (Kb) and the binding stoichiometry (n) were calculated. […] The values of Kb and n were calculated from the slope and the intercept of the log [(F0 − F)/F] versus log [Q] plot (Figure 2).\nThe forces involved in the interaction can be identified by measurement at different temperatures and then by thermodynamic analysis. The signs of the thermodynamic parameters identify the type of interactions. The enthalpy change (ΔH°), the entropic change (ΔS°), and the free energy change (ΔG°) were calculated from Equations (4) and (5):(4) […]=−ΔH^°/RT+ΔS^°/R (5) ΔG^°=ΔH^°−TΔS^°=−RTlnKb where Kb is the binding constant and R is the universal gas constant. To determine the thermodynamic parameters, the van’t Hoff plot was first conducted, i.e., the temperature dependence of the binding constant, according to Equation (4). The Kb values at the three temperatures were fitted by the linear regression method. The values of ΔH and ΔS were calculated from the slope and intercept at the fitted line. Next, the free energy change (ΔG°) was obtained from Equation (5)."}, "[4]": {"details": "GGF:peptide 1:0.25, pH 7.4 phosphate buffer"}, "[5]": {"details": "GGF:peptide 1:0.5, pH 7.4 phosphate buffer"}, "[6]": {"details": "GGF:peptide 1:0.75, pH 7.4 phosphate buffer"}, "[7]": {"details": "GGF:peptide 1:1, pH 7.4 phosphate buffer"}, "[8]": {"details": "GGF:peptide 1:1.5, pH 7.4 phosphate buffer"}, "[9]": {"details": "van't Hoff plot of Kb at 297, 303, 308 K"}}, "data": [{"substance": "Lys-Dab-Dab-Gly-Orn-Pro-His-Lys-Arg-Lys-Dbt [L1]", "values": [{"measurement": "Random Coil of GGF", "setting": "GGF [1]; GGF/peptide 1:0.5", "value": 39.82, "unit": "%"}, {"measurement": "β-Anti of GGF", "setting": "GGF [1]; GGF/peptide 1:0.5", "value": 3.85, "unit": "%"}, {"measurement": "β-Sheet of GGF", "setting": "GGF [1]; GGF/peptide 1:0.5", "value": 34.54, "unit": "%"}, {"measurement": "β-Turn of GGF", "setting": "GGF [1]; GGF/peptide 1:0.5", "value": 10.12, "unit": "%"}, {"measurement": "α-Helix of GGF", "setting": "GGF [1]; GGF/peptide 1:0.5, GGF 6.5 × 10^−4 M, room temperature", "value": 11.67, "unit": "%"}, {"measurement": "Random Coil of GGF", "setting": "GGF [1]; GGF/peptide 1:1.0", "value": 39.71, "unit": "%"}, {"measurement": "α-Helix of GGF", "setting": "GGF [1]; GGF/peptide 1:1.0", "value": 9.41, "unit": "%"}, {"measurement": "β-Anti of GGF", "setting": "GGF [1]; GGF/peptide 1:1.0", "value": 4.13, "unit": "%"}, {"measurement": "β-Sheet of GGF", "setting": "GGF [1]; GGF/peptide 1:1.0", "value": 35.36, "unit": "%"}, {"measurement": "β-Turn of GGF", "setting": "GGF [1]; GGF/peptide 1:1.0", "value": 11.38, "unit": "%"}, {"measurement": "Random Coil of GGF", "setting": "GGF [1]; GGF/peptide 1:1.5", "value": 40.67, "unit": "%"}, {"measurement": "α-Helix of GGF", "setting": "GGF [1]; GGF/peptide 1:1.5", "value": 9.37, "unit": "%"}, {"measurement": "β-Anti of GGF", "setting": "GGF [1]; GGF/peptide 1:1.5", "value": 4.12, "unit": "%"}, {"measurement": "β-Sheet of GGF", "setting": "GGF [1]; GGF/peptide 1:1.5", "value": 35.72, "unit": "%"}, {"measurement": "β-Turn of GGF", "setting": "GGF [1]; GGF/peptide 1:1.5", "value": 10.12, "unit": "%"}, {"measurement": "differences in the secondary structure of GGF", "setting": "GGF [1]; ATR-FTIR, after peptide addition", "value": 22.98, "unit": "%"}, {"measurement": "fall of α-helix of GGF", "setting": "GGF [1]; ATR-FTIR, versus free GGF", "value": "about 4%"}, {"measurement": "rise of random coil of GGF", "setting": "GGF [1]; ATR-FTIR, versus free GGF", "value": "~ 22.9%"}, {"measurement": "% Other of GGF", "setting": "GGF [2]; [4]", "value": 40.9, "unit": "%"}, {"measurement": "% β-Sheet of GGF", "setting": "GGF [2]; [4]", "value": 38.0, "unit": "%"}, {"measurement": "% β-Turn of GGF", "setting": "GGF [2]; [4]", "value": 13.2, "unit": "%"}, {"measurement": "% α-Helix of GGF", "setting": "GGF [2]; GGF:peptide 1:0.25, pH 7.4 phosphate buffer, room temperature, GGF 1 µM", "value": 7.9, "unit": "%"}, {"measurement": "% Other of GGF", "setting": "GGF [2]; [5]", "value": 40.9, "unit": "%"}, {"measurement": "% α-Helix of GGF", "setting": "GGF [2]; [5]", "value": 7.9, "unit": "%"}, {"measurement": "% β-Sheet of GGF", "setting": "GGF [2]; [5]", "value": 38.0, "unit": "%"}, {"measurement": "% β-Turn of GGF", "setting": "GGF [2]; [5]", "value": 13.2, "unit": "%"}, {"measurement": "% Other of GGF", "setting": "GGF [2]; [6]", "value": 41.3, "unit": "%"}, {"measurement": "% α-Helix of GGF", "setting": "GGF [2]; [6]", "value": 7.6, "unit": "%"}, {"measurement": "% β-Sheet of GGF", "setting": "GGF [2]; [6]", "value": 37.8, "unit": "%"}, {"measurement": "% β-Turn of GGF", "setting": "GGF [2]; [6]", "value": 13.3, "unit": "%"}, {"measurement": "% Other of GGF", "setting": "GGF [2]; [7]", "value": 41.4, "unit": "%"}, {"measurement": "% α-Helix of GGF", "setting": "GGF [2]; [7]", "value": 7.4, "unit": "%"}, {"measurement": "% β-Sheet of GGF", "setting": "GGF [2]; [7]", "value": 37.9, "unit": "%"}, {"measurement": "% β-Turn of GGF", "setting": "GGF [2]; [7]", "value": 13.3, "unit": "%"}, {"measurement": "% Other of GGF", "setting": "GGF [2]; [8]", "value": 41.5, "unit": "%"}, {"measurement": "% α-Helix of GGF", "setting": "GGF [2]; [8]", "value": 7.5, "unit": "%"}, {"measurement": "% β-Sheet of GGF", "setting": "GGF [2]; [8]", "value": 37.7, "unit": "%"}, {"measurement": "% β-Turn of GGF", "setting": "GGF [2]; [8]", "value": 13.3, "unit": "%"}, {"measurement": "number of binding sites n", "setting": "[3]; 297 K", "value": "1.06 ± 0.02"}, {"measurement": "number of binding sites n", "setting": "[3]; 303 K", "value": "1.03 ± 0.06"}, {"measurement": "number of binding sites n", "setting": "[3]; 308 K", "value": "0.97 ± 0.04"}, {"measurement": "ΔG°", "setting": "[3]; from ΔH° − TΔS°", "value": "−29 ± 1", "unit": "kJmol^−1"}, {"measurement": "ΔH°", "setting": "[3]; [9]", "value": "−94 ± 2", "unit": "kJmol^−1"}, {"measurement": "ΔS°", "setting": "[3]; [9]", "value": "−220 ± 7", "unit": "Jmol^−1K^−1"}]}]}
